Some of the results follow.
Tests used:
Experiment in all cases: log2 fold change, soluble protein after heating vs DMSO (PISA); higher = thermal stabilisation; K562 lysate, 10 uM; active = over 0.2 and 3.5 SD of the protein, either way, in both replicates (recomputed)
[1] = compound: C1=CC=C(C=C1)[C@H](COC2=CC3=C(C=C2)NC(=O)N3)NC(=O)C4=CC=CN(C4=O)CC5=CC(=C(C=C5)F)F
Outline: (§1)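 The values are log-two fold changes in thermal stability compared with solvent controls and come from duplicates. They were obtained by TMTpro 16plex LC-MS/MS, with channel sums equalised, on the supernatant after 21,000xg for 90 min. That supernatant came from crude K562 extract at 1 mg/mL protein treated with 10 μM compound for 30 min, heated for 3 min across 48°C-58°C, pooled and brought to 0.5% NP-40 at 4°C.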

Protein sequences, listed by entry. Tags and fused reporters are not part of them. Lines headed by an entry give the natural chain unless they say otherwise; changes in a name come on top.
UniProt Q12968: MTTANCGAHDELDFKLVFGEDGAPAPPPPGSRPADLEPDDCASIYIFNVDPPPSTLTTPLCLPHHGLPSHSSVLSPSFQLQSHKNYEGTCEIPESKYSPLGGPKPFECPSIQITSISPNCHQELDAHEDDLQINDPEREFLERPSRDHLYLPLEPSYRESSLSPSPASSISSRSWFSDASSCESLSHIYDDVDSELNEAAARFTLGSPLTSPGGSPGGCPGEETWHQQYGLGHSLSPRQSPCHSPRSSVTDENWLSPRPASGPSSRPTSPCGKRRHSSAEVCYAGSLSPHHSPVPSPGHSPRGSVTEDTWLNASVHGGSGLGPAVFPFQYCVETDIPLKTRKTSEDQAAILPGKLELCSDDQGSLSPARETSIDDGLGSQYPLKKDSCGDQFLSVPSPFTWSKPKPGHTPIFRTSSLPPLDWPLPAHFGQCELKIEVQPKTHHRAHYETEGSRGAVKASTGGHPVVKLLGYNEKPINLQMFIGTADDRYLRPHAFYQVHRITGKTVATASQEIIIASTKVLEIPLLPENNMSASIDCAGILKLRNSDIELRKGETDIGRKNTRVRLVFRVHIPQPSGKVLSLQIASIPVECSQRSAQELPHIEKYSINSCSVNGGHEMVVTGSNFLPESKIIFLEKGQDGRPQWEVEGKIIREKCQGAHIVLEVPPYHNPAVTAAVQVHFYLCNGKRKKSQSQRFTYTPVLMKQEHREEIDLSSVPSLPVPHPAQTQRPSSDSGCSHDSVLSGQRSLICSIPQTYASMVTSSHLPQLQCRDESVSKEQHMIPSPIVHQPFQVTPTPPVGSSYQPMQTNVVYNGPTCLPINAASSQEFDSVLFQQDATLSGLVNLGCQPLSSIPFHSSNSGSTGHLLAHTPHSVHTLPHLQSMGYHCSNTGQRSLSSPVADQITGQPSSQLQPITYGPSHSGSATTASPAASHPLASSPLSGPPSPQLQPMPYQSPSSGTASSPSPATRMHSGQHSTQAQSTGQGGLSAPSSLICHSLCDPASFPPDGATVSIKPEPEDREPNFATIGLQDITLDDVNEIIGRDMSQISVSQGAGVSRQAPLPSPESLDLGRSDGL
UniProt Q7L592: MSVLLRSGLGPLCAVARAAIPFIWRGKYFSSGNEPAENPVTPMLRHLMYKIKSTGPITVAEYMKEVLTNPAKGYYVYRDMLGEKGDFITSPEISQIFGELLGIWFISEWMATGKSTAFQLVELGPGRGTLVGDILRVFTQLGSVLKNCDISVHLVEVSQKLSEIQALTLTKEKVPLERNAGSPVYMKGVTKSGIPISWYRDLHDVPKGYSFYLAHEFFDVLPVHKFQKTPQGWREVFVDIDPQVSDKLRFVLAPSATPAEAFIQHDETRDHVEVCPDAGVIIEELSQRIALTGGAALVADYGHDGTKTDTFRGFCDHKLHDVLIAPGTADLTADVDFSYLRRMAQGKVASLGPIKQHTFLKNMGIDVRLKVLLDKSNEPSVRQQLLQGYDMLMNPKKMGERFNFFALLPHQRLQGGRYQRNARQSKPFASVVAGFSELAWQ
UniProt O94916: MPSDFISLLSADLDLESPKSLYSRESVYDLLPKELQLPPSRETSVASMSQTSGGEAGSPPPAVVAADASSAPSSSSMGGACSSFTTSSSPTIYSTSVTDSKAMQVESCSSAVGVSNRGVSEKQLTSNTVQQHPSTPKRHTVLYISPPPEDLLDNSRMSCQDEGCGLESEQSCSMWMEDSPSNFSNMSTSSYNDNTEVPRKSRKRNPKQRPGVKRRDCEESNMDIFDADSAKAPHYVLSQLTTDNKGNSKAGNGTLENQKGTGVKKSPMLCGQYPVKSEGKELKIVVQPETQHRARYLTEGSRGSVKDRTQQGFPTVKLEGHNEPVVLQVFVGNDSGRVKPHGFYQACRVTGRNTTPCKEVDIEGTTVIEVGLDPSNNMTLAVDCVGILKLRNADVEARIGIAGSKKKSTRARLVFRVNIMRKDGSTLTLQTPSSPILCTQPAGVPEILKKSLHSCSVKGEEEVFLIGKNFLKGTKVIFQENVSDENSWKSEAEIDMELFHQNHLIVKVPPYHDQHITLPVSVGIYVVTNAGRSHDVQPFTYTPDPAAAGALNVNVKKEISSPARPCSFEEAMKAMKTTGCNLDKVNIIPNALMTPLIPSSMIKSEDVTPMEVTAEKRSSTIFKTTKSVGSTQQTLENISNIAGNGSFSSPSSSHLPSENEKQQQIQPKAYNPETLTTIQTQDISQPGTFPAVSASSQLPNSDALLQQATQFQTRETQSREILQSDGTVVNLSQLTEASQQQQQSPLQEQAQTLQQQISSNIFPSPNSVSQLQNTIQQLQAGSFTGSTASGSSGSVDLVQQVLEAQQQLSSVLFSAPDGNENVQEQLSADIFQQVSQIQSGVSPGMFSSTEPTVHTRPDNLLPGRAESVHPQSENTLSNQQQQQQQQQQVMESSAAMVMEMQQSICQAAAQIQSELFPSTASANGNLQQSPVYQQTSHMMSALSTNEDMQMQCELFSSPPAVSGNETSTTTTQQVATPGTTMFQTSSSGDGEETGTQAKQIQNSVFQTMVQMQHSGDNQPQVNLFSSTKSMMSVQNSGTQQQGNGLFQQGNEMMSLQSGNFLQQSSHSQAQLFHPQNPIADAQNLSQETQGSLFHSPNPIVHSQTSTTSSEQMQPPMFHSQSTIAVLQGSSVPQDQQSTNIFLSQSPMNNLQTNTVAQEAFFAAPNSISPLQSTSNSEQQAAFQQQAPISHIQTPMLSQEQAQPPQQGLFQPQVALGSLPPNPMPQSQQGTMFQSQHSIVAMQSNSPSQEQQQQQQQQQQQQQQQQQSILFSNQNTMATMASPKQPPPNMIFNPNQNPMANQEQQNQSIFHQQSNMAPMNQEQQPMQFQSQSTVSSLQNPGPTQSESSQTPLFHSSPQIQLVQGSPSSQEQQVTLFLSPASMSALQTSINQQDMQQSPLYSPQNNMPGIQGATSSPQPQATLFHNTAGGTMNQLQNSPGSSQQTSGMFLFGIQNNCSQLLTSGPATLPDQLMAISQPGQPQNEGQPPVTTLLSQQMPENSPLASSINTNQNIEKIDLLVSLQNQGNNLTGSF
UniProt P35240: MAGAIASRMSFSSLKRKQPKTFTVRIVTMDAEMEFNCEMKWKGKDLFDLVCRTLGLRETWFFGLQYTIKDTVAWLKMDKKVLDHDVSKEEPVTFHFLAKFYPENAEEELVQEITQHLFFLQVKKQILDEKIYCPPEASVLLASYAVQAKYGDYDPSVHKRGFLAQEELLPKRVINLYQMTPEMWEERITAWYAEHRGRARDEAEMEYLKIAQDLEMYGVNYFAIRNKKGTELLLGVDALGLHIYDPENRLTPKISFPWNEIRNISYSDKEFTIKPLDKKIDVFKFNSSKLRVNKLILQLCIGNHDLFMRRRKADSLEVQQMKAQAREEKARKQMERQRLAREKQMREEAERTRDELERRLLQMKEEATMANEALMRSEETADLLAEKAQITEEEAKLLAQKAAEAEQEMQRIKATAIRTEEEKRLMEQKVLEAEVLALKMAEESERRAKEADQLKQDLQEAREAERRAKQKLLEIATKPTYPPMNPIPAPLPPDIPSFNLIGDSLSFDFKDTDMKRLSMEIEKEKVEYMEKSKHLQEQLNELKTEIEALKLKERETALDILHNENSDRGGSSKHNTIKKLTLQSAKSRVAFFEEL
UniProt O43678, whole entry, looked up: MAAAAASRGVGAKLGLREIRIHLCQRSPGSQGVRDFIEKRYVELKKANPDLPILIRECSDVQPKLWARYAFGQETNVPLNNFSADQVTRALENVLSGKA
UniProt Q14934: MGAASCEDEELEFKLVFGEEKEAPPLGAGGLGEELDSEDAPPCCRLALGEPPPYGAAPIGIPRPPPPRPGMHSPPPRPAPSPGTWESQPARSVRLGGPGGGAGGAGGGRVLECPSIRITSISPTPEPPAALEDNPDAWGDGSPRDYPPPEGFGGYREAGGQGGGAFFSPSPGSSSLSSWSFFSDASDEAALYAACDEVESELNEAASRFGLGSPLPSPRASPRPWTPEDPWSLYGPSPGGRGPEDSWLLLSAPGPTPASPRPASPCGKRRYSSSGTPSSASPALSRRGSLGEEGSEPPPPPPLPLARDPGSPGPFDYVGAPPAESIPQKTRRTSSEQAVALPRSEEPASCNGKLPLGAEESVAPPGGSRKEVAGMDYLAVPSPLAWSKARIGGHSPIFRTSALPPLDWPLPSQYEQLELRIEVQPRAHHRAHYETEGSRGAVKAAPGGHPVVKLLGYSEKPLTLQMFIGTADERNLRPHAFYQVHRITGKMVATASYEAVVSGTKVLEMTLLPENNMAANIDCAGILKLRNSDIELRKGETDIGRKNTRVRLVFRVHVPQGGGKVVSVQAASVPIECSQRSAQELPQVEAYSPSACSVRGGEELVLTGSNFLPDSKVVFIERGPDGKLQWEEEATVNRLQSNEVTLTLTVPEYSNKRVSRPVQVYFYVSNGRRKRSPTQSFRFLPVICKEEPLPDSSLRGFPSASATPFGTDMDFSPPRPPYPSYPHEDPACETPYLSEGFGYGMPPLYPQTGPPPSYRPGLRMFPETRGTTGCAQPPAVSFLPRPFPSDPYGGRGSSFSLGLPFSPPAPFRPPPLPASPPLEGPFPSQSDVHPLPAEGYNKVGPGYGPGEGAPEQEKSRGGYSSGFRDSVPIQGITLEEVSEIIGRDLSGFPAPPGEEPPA
UniProt Q9GZM8: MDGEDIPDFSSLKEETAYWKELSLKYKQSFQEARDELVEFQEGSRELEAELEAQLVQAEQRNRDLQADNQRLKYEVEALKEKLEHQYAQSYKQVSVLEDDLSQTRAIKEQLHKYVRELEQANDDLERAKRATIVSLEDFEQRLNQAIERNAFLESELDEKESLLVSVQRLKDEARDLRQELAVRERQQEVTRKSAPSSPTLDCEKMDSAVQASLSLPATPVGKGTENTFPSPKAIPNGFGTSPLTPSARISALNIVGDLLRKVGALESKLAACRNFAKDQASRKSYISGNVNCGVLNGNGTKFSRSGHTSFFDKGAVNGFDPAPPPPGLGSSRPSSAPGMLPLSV
UniProt Q7RTR2: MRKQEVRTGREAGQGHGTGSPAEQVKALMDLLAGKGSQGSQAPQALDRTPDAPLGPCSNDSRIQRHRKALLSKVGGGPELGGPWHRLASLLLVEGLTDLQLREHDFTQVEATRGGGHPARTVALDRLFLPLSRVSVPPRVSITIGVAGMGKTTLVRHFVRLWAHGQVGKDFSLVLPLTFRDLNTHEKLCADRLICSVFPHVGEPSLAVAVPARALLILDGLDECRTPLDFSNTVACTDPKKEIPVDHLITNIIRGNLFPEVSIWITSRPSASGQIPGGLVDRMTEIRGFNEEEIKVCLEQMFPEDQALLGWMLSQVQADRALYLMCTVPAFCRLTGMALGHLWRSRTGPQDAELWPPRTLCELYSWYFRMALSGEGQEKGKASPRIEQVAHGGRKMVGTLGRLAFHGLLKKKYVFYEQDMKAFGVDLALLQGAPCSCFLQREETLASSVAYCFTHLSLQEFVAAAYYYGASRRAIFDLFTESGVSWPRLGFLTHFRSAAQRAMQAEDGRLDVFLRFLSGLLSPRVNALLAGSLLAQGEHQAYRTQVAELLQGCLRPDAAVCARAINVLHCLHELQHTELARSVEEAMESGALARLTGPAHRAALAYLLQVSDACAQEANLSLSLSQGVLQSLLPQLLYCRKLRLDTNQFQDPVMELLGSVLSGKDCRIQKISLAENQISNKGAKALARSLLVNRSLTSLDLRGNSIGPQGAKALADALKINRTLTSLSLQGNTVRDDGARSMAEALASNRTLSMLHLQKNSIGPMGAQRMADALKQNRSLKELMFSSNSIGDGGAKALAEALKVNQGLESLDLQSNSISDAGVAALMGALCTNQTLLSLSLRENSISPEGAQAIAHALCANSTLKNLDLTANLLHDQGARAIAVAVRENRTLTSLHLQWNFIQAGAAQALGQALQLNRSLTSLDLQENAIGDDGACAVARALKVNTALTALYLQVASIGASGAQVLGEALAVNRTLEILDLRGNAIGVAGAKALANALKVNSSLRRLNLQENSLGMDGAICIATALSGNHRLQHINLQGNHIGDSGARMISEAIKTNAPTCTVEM
UniProt Q86Y39, whole entry, looked up: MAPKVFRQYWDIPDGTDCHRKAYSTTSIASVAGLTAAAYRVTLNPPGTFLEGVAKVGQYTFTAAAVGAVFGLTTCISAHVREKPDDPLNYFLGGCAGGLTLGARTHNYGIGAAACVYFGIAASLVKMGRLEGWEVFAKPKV
UniProt Q9Y375: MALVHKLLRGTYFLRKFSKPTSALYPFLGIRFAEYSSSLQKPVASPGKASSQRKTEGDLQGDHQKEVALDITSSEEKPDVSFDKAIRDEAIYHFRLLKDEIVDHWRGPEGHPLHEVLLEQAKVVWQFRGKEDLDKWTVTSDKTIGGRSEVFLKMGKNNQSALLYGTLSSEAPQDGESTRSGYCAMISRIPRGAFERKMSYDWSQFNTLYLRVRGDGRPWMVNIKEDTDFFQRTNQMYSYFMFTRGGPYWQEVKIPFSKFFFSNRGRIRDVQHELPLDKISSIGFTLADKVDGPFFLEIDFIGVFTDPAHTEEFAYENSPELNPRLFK

[2] = compound: CC1=C(SC2=C1C(=N[C@H](C3=NN=C(N32)C)CC(=O)N)C4=CC=C(C=C4)Cl)C
Outline: as §1

[3] = compound: CC1=C2C(=CC=C1)N=C(N(C2=O)C3=CC=CC=C3C)CN4C=NC5=C(N=CN=C54)N
Outline: as §1

[4] = compound: Cc1sc2c(c1C)C(c1ccc(Cl)cc1)=N[C@@H](CC(=O)OC(C)(C)C)c1nnc(C)n1-2
Outline: as §1

[5] = compound: c1ccc([C@@H]2C[C@H]2NC2CCNCC2)cc1
Outline: as §1

Measured: log2 fold change

NFS1 (UniProt Q9Y697)
inactive: [1] 0.03 | [2] 0.001 | [3] 0.013 | [4] -0.029 | [5] -0.025

NEDD4 isoform 4 (UniProt P46934)
inactive: [1] -0.012 | [2] 0.102 | [3] -0.003 | [4] -0.014 | [5] 0.034

NIFK (UniProt Q9BYG3)
inactive: [1] 0.065 | [2] 0.07 | [3] 0.015 | [4] 0.056 | [5] 0.047

NDUFA7 (UniProt O95182)
inactive: [1] 0.03 | [2] -0.014 | [3] -0.014 | [4] -0.021 | [5] 0.021

NDUFB9 (UniProt Q9Y6M9)
inactive: [1] 0.027 | [2] -0.028 | [3] -0.065 | [4] 0.065 | [5] 0.069

NFATC3 (UniProt Q12968)
inactive: [1] 0.026 | [2] 0.004 | [3] 0.005 | [4] -0.003 | [5] 0.016

NLE1 (UniProt Q9NVX2)
inactive: [1] 0.033 | [2] 0.01 | [3] -0.006 | [4] -0.01 | [5] -0.028

3 records drawn at random from the list so far:
NLE1 (UniProt Q9NVX2)
inactive: [1] 0.033 | [2] 0.01 | [3] -0.006 | [4] -0.01 | [5] -0.028

NFS1 (UniProt Q9Y697)
inactive: [1] 0.03 | [2] 0.001 | [3] 0.013 | [4] -0.029 | [5] -0.025

NDUFA7 (UniProt O95182)
inactive: [1] 0.03 | [2] -0.014 | [3] -0.014 | [4] -0.021 | [5] 0.021

Later entries:

NDUFAF7 (UniProt Q7L592)
inactive: [1] -0.003 | [2] 0.109 | [3] 0.019 | [4] -0.012 | [5] 0.035

NDST1 (UniProt P52848)
inactive: [1] 0.077 | [2] 0.111 | [3] -0.072 | [4] 0.109

NDUFB3 (UniProt O43676)
inactive: [1] 0.021 | [2] -0.013 | [3] -0.01 | [4] 0.005 | [5] 0.016

NFAT5 isoform 4 (UniProt O94916)
inactive: [1] -0.208 | [2] 0.11

NDOR1 isoform 2 (UniProt Q9UHB4)
inactive: [1] -0.109 | [2] 0.082 | [3] 0.061 | [4] -0.021 | [5] -0.062

NDUFA4 (UniProt O00483)
inactive: [1] -0.019 | [2] -0.048 | [3] -0.063 | [4] 0.035 | [5] 0.287

NFIC (UniProt P08651)
inactive: [1] 0.023 | [2] 0.018 | [3] -0.056 | [4] 0.052 | [5] -0.177

NF2 (UniProt P35240)
inactive: [1] 0.069 | [2] 0.011 | [3] -0.04 | [4] 0.015 | [5] -0.016

NEFH (UniProt P12036)
inactive: [1] -0.042 | [2] -0.031 | [3] -0.113 | [4] 0.038 | [5] 0.077

NDUFA2 (UniProt O43678)
inactive: [1] 0.008 | [2] -0.026 | [3] 0.04 | [4] -0.014 | [5] 0.038

NDUFAF3 (UniProt Q9BU61)
inactive: [1] -0.08 | [2] 0.058 | [3] 0.108 | [4] -0.023 | [5] 0.006

NEK1 isoform 3 (UniProt Q96PY6)
inactive: [1] 0.016 | [2] 0.044 | [3] -0.023 | [4] 0.023 | [5] 0.015

NEDD1 isoform 3 (UniProt Q8NHV4)
inactive: [1] 0.02 | [2] -0.009 | [3] 0.091 | [4] -0.042 | [5] 0.02

NDRG2 (UniProt G3V2A6)
inactive: [1] -0.046 | [2] -0.064

NDUFA9 (UniProt Q16795)
inactive: [1] -0.033 | [2] -0.037 | [3] 0.071 | [4] -0.007 | [5] 0.085

NFATC4 isoform 2 (UniProt Q14934)
inactive: [1] -0.077 | [2] 0.015 | [3] 0 | [4] -0.112 | [5] -0.197

NDEL1 isoform 2 (UniProt Q9GZM8)
inactive: [1] 0.043 | [2] 0.03 | [3] -0.027 | [4] -0.003 | [5] 0.011

NFATC1 (UniProt O95644)
inactive: [1] -0.006 | [2] 0.047 | [3] -0.017 | [4] 0.003 | [5] -0.127

NGRN (UniProt Q9NPE2)
inactive: [1] -0.036 | [2] 0.049 | [3] 0.039 | [4] -0.069 | [5] 0.09

NFKBIA (UniProt P25963)
inactive: [1] 0.086 | [2] 0.021 | [3] 0.084 | [4] 0.016

NF1 (UniProt P21359)
inactive: [1] -0.03 | [2] -0.01 | [3] 0.03 | [4] -0.009 | [5] 0.016

NEK7 (UniProt Q8TDX7)
inactive: [1] 0.03 | [2] -0.032 | [3] -0.004 | [4] -0.076 | [5] 0.026

NEMP1 (UniProt O14524)
inactive: [1] 0.06 | [2] 0.122

NEDD8 (UniProt Q15843)
inactive: [1] 0.051 | [2] -0.014 | [3] -0.047 | [4] 0.002 | [5] 0.085

NDRG3 (UniProt Q9UGV2)
inactive: [1] -0.006 | [2] 0.002 | [3] 0.017 | [4] 0.018 | [5] 0.033

NDUFS1 isoform 2 (UniProt P28331)
inactive: [1] 0.009 | [2] -0.003 | [3] 0.022 | [4] 0.013 | [5] 0.035

NEU3 isoform 2 (UniProt Q9UQ49)
inactive: [1] -0.104 | [2] 0.081 | [3] 0.061 | [4] -0.001

NHLRC2 (UniProt Q8NBF2)
inactive: [1] 0.011 | [2] 0.014 | [3] 0.008 | [4] -0.006 | [5] -0.017

NLRC3 isoform 2 (UniProt Q7RTR2)
inactive: [1] -0.158 | [2] 0.078 | [3] -0.064 | [4] -0.131

NDUFA11 (UniProt Q86Y39)
inactive: [1] -0.002 | [2] -0.033 | [3] -0.013 | [4] 0.016 | [5] -0.086

NDUFAF4 (UniProt Q9P032)
inactive: [1] -0.094 | [2] -0.001 | [3] 0.002 | [4] -0.008 | [5] 0.042

NDUFA13 (UniProt Q9P0J0)
inactive: [1] -0.022 | [2] 0.036 | [3] 0.01 | [4] -0.003 | [5] 0.064

NDUFS6 (UniProt O75380)
inactive: [1] 0.044 | [2] -0.049 | [3] -0.017 | [4] 0.004 | [5] -0.005

NDUFAF1 (UniProt Q9Y375)
inactive: [1] 0.04 | [2] -0.041 | [3] -0.016 | [4] -0.065 | [5] 0.049

NFYA (UniProt P23511)
inactive: [1] 0.153 | [2] -0.024 | [3] 0.09 | [4] 0.1 | [5] -0.035

NDUFB10 (UniProt O96000)
inactive: [1] -0.001 | [2] 0.023 | [3] 0.011 | [4] 0.007 | [5] 0.047

NDST2 (UniProt P52849)
inactive: [1] 0.017 | [2] 0.092 | [3] 0.075 | [4] -0.066 | [5] 0.304

NIPSNAP2 (UniProt O75323)
inactive: [1] 0.057 | [2] -0.023 | [3] 0.069 | [4] -0.034 | [5] 0.048

NFYC (UniProt Q13952)
inactive: [1] 0.075 | [2] -0.034 | [3] 0 | [4] -0.08 | [5] -0.047

NIT2 (UniProt Q9NQR4)
inactive: [1] -0.033 | [2] 0.017 | [3] 0.027 | [4] -0.007 | [5] 0.058

NDUFS2 (UniProt O75306)
inactive: [1] 0 | [2] 0.025 | [3] -0.012 | [4] 0.017 | [5] 0.012

NECAP1 (UniProt Q8NC96)
inactive: [1] 0.034 | [2] 0.041 | [3] 0.006 | [4] 0.015 | [5] -0.031

NFKB1 isoform 2 (UniProt P19838)
inactive: [1] 0.004 | [2] -0.003 | [3] 0.031 | [4] 0.002 | [5] -0.013

NDUFS4 (UniProt O43181)
inactive: [1] 0.04 | [2] -0.044 | [3] 0.015 | [4] -0.023 | [5] -0.031

NEDD4L (UniProt Q96PU5)
inactive: [1] 0.018 | [2] 0.018 | [3] -0.008 | [4] 0.049 | [5] 0.041

NIBAN2 (UniProt Q96TA1)
inactive: [1] 0.038 | [2] 0.009 | [3] 0.011 | [4] -0.005 | [5] 0.099

NIPBL (UniProt Q6KC79)
inactive: [1] 0.003 | [2] -0.055 | [3] -0.001 | [4] -0.014 | [5] -0.01
